Results: publication PMC10988300

Protein sequences, listed by entry. Tags and fused reporters are not part of them.
UniProt P09429: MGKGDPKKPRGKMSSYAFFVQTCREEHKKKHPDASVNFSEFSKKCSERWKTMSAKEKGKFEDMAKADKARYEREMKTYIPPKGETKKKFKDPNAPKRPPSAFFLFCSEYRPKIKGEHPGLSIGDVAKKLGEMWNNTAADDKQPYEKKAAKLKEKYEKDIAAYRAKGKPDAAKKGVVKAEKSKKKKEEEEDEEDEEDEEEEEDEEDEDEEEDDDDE
UniProt Q96JN8: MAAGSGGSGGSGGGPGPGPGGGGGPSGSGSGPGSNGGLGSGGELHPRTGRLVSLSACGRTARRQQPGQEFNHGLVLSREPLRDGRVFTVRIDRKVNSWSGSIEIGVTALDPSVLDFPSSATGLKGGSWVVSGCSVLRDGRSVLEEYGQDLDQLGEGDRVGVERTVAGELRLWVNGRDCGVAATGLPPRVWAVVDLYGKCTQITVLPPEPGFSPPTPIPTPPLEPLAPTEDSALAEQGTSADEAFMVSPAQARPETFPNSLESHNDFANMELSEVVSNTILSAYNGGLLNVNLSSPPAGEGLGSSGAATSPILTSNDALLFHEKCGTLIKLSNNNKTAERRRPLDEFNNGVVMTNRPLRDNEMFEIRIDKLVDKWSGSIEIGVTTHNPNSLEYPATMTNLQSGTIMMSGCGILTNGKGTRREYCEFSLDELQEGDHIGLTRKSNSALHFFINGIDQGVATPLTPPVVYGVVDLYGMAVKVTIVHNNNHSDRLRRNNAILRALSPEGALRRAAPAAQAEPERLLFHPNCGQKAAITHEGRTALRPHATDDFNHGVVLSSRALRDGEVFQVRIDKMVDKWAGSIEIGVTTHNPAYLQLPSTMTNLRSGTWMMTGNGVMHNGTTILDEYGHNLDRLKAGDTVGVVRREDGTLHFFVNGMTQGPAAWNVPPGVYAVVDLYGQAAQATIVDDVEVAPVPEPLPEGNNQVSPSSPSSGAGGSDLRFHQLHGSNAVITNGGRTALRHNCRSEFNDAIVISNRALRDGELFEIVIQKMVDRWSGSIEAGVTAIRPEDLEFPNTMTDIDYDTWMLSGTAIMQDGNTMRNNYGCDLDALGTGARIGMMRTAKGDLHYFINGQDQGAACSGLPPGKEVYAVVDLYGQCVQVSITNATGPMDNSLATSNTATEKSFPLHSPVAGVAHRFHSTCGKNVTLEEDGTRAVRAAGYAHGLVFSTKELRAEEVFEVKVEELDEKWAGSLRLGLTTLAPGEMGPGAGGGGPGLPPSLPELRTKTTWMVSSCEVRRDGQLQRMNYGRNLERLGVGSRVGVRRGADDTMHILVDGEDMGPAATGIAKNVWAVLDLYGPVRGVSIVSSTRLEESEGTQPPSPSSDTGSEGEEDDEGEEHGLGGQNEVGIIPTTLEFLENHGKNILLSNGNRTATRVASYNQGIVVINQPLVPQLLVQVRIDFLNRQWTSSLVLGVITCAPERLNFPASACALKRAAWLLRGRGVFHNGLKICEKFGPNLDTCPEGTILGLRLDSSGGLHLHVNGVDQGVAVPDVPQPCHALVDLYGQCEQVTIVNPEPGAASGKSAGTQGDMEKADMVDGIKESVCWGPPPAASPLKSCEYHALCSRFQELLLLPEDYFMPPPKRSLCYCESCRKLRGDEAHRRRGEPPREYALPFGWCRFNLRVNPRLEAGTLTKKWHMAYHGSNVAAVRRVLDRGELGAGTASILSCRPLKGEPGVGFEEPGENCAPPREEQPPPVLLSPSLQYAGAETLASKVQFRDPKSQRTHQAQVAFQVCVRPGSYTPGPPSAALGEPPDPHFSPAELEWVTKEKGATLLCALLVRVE

B1: USP15, hit of the HMGB1 IP-MS (enzyme, UniProt Q9Y4E8 1-981)
chain: MAEGGAADLDTQRSDIATLLKTSLRKGDTWYLVDSRWFKQWKKYVGFDSWDKYQMGDQNVYPGPIDNSGLLKDGDAQSLKEHLIDELDYILLPTEGWNKLVSWYTLMEGQEPIARKVVEQGMFVKHCKVEVYLTELKLCENGNMNNVVTRRFSKADTIDTIEKEIRKIFSIPDEKETRLWNKYMSNTFEPLNKPDSTIQDAGLYQGQVLVIEQKNEDGTWPRGPSTPKSPGASNFSTLPKISPSSLSNNYNNMNNRNVKNSNYCLPSYTAYKNYDYSEPGRNNEQPGLCGLSNLGNTCFMNSAIQCLSNTPPLTEYFLNDKYQEELNFDNPLGMRGEIAKSYAELIKQMWSGKFSYVTPRAFKTQVGRFAPQFSGYQQQDCQELLAFLLDGLHEDLNRIRKKPYIQLKDADGRPDKVVAEEAWENHLKRNDSIIVDIFHGLFKSTLVCPECAKISVTFDPFCYLTLPLPMKKERTLEVYLVRMDPLTKPMQYKVVVPKIGNILDLCTALSALSGIPADKMIVTDIYNHRFHRIFAMDENLSSIMERDDIYVFEININRTEDTEHVIIPVCLREKFRHSSYTHHTGSSLFGQPFLMAVPRNNTEDKLYNLLLLRMCRYVKISTETEETEGSLHCCKDQNINGNGPNGIHEEGSPSEMETDEPDDESSQDQELPSENENSQSEDSVGGDNDSENGLCTEDTCKGQLTGHKKRLFTFQFNNLGNTDINYIKDDTRHIRFDDRQLRLDERSFLALDWDPDLKKRYFDENAAEDFEKHESVEYKPPKKPFVKLKDCIELFTTKEKLGAEDPWYCPNCKEHQQATKKLDLWSLPPVLVVHLKRFSYSRYMRDKLDTLVDFPINDLDMSEFLINPNAGPCRYNLIAVSNHYGGMGGGHYTAFAKNKDDGKWYYFDDSSVSTASEDQIVSKAAYVLFYQRQDTFSGTGFFPLDRETKGASAATGIPLESDEDSNDNDNDIENENCMHTN
B2: constitutive coactivator of PPAR-gamma-like protein 1 (FAM120A) (protein, UniProt Q9NZB2 1-1118)
chain: MGVQGFQDYIEKHCPSAVVPVELQKLARGSLVGGGRQRPPQTPLRLLVDADNCLHRLYGGFYTDWVSGGQWNHMLGYLAALAKACFGGNIELFVFFNGALEKARLHEWVKRQGNERQTAQQIVSHVQNKGTPPPKVWFLPPVCMAHCIRLALIRFHVKVAQSIEDHHQEVIGFCRENGFHGLVAYDSDYALCNIPYYFSAHALKLSRNGKSLTTSQYLMHEVAKQLDLNPNRFPIFAALLGNHILPDEDLASFHWSLLGPEHPLASLKVRAHQLVLPPCDVVIKAVADYVRNIQDTSDLDAIAKDVFQHSQSRTDDKVIRFKRAIGYYSATSKPMSFHPPHYLAARPGPFGMPGMVPPHVPPQMLNIPQTSLQAKPVAPQVPSPGGAPGQGPYPYSLSEPAPLTLDTSGKNLTEQNSYSNIPHEGKHTPLYERSSPINPAQSGSPNHVDSAYFPGSSTSSSSDNDEGSGGATNHISGNKIGWEKTGSHSEPQARGDPGDQTKAEGSSTASSGSQLAEGKGSQMGTVQPIPCLLSMPTRNHMDITTPPLPPVAPEVLRVAEHRHKKGLMYPYIFHVLTKGEIKIAVSIEDEANKDLPPAALLYRPVRQYVYGVLFSLAESRKKTERLAFRKNRLPPEFSPVIIKEWAAYKGKSPQTPELVEALAFREWTCPNLKRLWLGKAVEDKNRRMRAFLACMRSDTPAMLNPANVPTHLMVLCCVLRYMVQWPGARILRRQELDAFLAQALSPKLYEPDQLQELKIENLDPRGIQLSALFMSGVDMALFANDACGQPIPWEHCCPWMYFDGKLFQSKLLKASREKTPLIDLCDGQADQAAKVEKMRQSVLEGLSFSRQSHTLPFPPPPALPFYPASAYPRHFGPVPPSQGRGRGFAGVCGFGGPYGETVATGPYRAFRVAAASGHCGAFSGSDSSRTSKSQGGVQPIPSQGGKLEIAGTVVGHWAGSRRGRGGRGPFPLQVVSVGGPARGRPRGVISTPVIRTFGRGGRYYGRGYKNQAAIQGRPPYAASAEEVAKELKSKSGESKSSAMSSDGSLAENGVMAEEKPAPQMNGSTGDARAPSHSESALNNDSKTCNTNPHLNALSTDSACRREAALEAAVLNKEE
B3: pyruvate dehydrogenase E1 component subunit beta (PDHB) (protein, UniProt P11177 31-359)
chain: LQVTVRDAINQGMDEELERDEKVFLLGEEVAQYDGAYKVSRGLWKKYGDKRIIDTPISEMGFAGIAVGAAMAGLRPICEFMTFNFSMQAIDQVINSAAKTYYMSGGLQPVPIVFRGPNGASAGVAAQHSQCFAAWYGHCPGLKVVSPWNSEDAKGLIKSAIRDNNPVVVLENELMYGVPFEFPPEAQSKDFLIPIGKAKIERQGTHITVVSHSRPVGHCLEAAAVLSKEGVECEVINMRTIRPMDMETIEASVMKTNHLVTVEGGWPQFGVGAEICARIMEGPAFNFLDAPAVRVTGADVPMPYAKILEDNSIPQVKDIIFAIKKTLNI
B4: RNA-binding protein 14 (RBM14) (protein, UniProt Q96PK6 1-669)
chain: MKIFVGNVDGADTTPEELAALFAPYGTVMSCAVMKQFAFVHMRENAGALRAIEALHGHELRPGRALVVEMSRPRPLNTWKIFVGNVSAACTSQELRSLFERRGRVIECDVVKDYAFVHMEKEADAKAAIAQLNGKEVKGKRINVELSTKGQKKGPGLAVQSGDKTKKPGAGDTAFPGTGGFSATFDYQQAFGNSTGGFDGQARQPTPPFFGRDRSPLRRSPPRASYVAPLTAQPATYRAQPSVSLGAAYRAQPSASLGVGYRTQPMTAQAASYRAQPSVSLGAPYRGQLASPSSQSAAASSLGPYGGAQPSASALSSYGGQAAAASSLNSYGAQGSSLASYGNQPSSYGAQAASSYGVRAAASSYNTQGAASSLGSYGAQAASYGAQSAASSLAYGAQAASYNAQPSASYNAQSAPYAAQQAASYSSQPAAYVAQPATAAAYASQPAAYAAQATTPMAGSYGAQPVVQTQLNSYGAQASMGLSGSYGAQSAAAATGSYGAAAAYGAQPSATLAAPYRTQSSASLAASYAAQQHPQAAASYRGQPGNAYDGAGQPSAAYLSMSQGAVANANSTPPPYERTRLSPPRASYDDPYKKAVAMSKRYGSDRRLAELSDYRRLSESQLSFRRSPTKSSLDYRRLPDAHSDYARYSGSYNDYLRAAQMHSGYQRRM
B5: interleukin enhancer-binding factor 3 (ILF3) (protein, UniProt Q12906 1-894)
chain: MRPMRIFVNDDRHVMAKHSSVYPTQEELEAVQNMVSHTERALKAVSDWIDEQEKGSSEQAESDNMDVPPEDDSKEGAGEQKTEHMTRTLRGVMRVGLVAKGLLLKGDLDLELVLLCKEKPTTALLDKVADNLAIQLAAVTEDKYEILQSVDDAAIVIKNTKEPPLSLTIHLTSPVVREEMEKVLAGETLSVNDPPDVLDRQKCLAALASLRHAKWFQARANGLKSCVIVIRVLRDLCTRVPTWGPLRGWPLELLCEKSIGTANRPMGAGEALRRVLECLASGIVMPDGSGIYDPCEKEATDAIGHLDRQQREDITQSAQHALRLAAFGQLHKVLGMDPLPSKMPKKPKNENPVDYTVQIPPSTTYAITPMKRPMEEDGEEKSPSKKKKKIQKKEEKAEPPQAMNALMRLNQLKPGLQYKLVSQTGPVHAPIFTMSVEVDGNSFEASGPSKKTAKLHVAVKVLQDMGLPTGAEGRDSSKGEDSAEETEAKPAVVAPAPVVEAVSTPSAAFPSDATAEQGPILTKHGKNPVMELNEKRRGLKYELISETGGSHDKRFVMEVEVDGQKFQGAGSNKKVAKAYAALAALEKLFPDTPLALDANKKKRAPVPVRGGPKFAAKPHNPGFGMGGPMHNEVPPPPNLRGRGRGGSIRGRGRGRGFGGANHGGYMNAGAGYGSYGYGGNSATAGYSQFYSNGGHSGNASGGGGGGGGGSSGYGSYYQGDNYNSPVPPKHAGKKQPHGGQQKPSYGSGYQSHQGQQQSYNQSPYSNYGPPQGKQKGYNHGQGSYSYSNSYNSPGGGGGSDYNYESKFNYSGSGGRSGGNSYGSGGASYNPGSHGGYGGGSGGGSSYQGKQGGYSQSNYNSPGSGQNYSGPPSSYQSSQGGYGRNADHSMNYQYR

target: High-mobility group box 1 (HMGB1), bait of the co-immunoprecipitation for mass spectrometry (UniProt P09429); assay: affinity purification with mass spectrometry; Co-IP of HMGB1, bands cut from a Coomassie-stained gel, LC-ESL-LTQ-Orbitrap-MS; cells not given

| Molecule | binding |
| --- | --- |
| neuralized-like protein 4 (NEURL4) (from UniProt Q96JN8 1-1562) | binds |
| B1 | binds |
| B2 | binds |
| B3 | binds |
| B4 | binds |
| B5 | binds |

Results are given in words; binding and its absence hold for the method and conditions named. In cells and extracts the contact can be indirect. These calls come from enrichment with a bait or labelling near it, and not all partners need be listed.
